PubChem BioAssay AID1259254 | NCATS – 2017
Purpose: 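Finding genes that stop cells copying their DNA twice in one cycle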 (primary screen). Cells: human HCT116 colorectal cancer cells. Reagent: single siRNA against human genes. Duration: 3 days. Measured: 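Imaged Hoechst DNA stain sorts each cell into a cycle phase by DNA amount; per plate, G2 fraction set to 0% for non-targeting and 100% for GMNN siRNA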. Reading the numbers: G2 robust z-score and G2 cells, % of GMNN control: higher = more G2 cells, more excess DNA replication. Active means: 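Active siRNAs have a G2 robust z of 5 or more median absolute deviations over the median, which in these data means about 38% or higher of GMNN control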.
The whole screen tested about 59,000 reagents; this is a random part of them. About 1,550 of all reagents (2.6%) were called active. 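G2 share is only a proxy for re-replication; each gene was hit by three separate siRNAs, and active genes were retested.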 The numbers tell different reagents against one gene apart. Further read-outs or replicates are left out here. Reagent sequences are not shown. The record does not give: the amount of reagent.

target,siRNA no.,G2 robust z-score,"G2 cells, % of GMNN control",Outcome
EHD2 (EH domain containing 2),1,1.26,11.9,inactive
EHD2 (EH domain containing 2),2,-0.28,0.998,inactive
EHD2 (EH domain containing 2),3,-0.204,1.53,inactive
NSMCE1 (NSE1 component of SMC5/6 complex),1,0.46,6.2,inactive
NSMCE1 (NSE1 component of SMC5/6 complex),2,-0.392,0.208,inactive
NSMCE1 (NSE1 component of SMC5/6 complex),3,-0.0407,2.68,inactive
RRBP1 (ribosome binding protein 1),1,-0.303,0.832,inactive
RRBP1 (ribosome binding protein 1),2,2.71,22,inactive
RRBP1 (ribosome binding protein 1),3,-0.184,1.67,inactive
IGFL2 (IGF like family member 2),1,0.729,8.09,inactive
IGFL2 (IGF like family member 2),2,-0.527,-0.738,inactive
IGFL2 (IGF like family member 2),3,-0.352,0.491,inactive
MYO15A (myosin XVA),1,0.808,8.65,inactive
MYO15A (myosin XVA),2,0.168,4.15,inactive
MYO15A (myosin XVA),3,0.589,7.11,inactive
RPS7 (ribosomal protein S7),1,4.06,31.5,inactive
RPS7 (ribosomal protein S7),2,2.04,17.3,inactive
RPS7 (ribosomal protein S7),3,1.23,11.6,inactive
SGF29 (SAGA complex associated factor 29),1,-0.305,0.818,inactive
SGF29 (SAGA complex associated factor 29),2,0.464,6.23,inactive
SGF29 (SAGA complex associated factor 29),3,-0.0348,2.72,inactive
FBXO38 (F-box protein 38),1,0.482,6.36,inactive
FBXO38 (F-box protein 38),2,-0.601,-1.26,inactive
FBXO38 (F-box protein 38),3,-0.808,-2.72,inactive
CALCOCO2 (calcium binding and coiled-coil domain 2),1,1.6,14.2,inactive
CALCOCO2 (calcium binding and coiled-coil domain 2),2,0.327,5.27,inactive
CALCOCO2 (calcium binding and coiled-coil domain 2),3,-0.364,0.41,inactive
EIF5B (eukaryotic translation initiation factor 5B),1,0.8,8.59,inactive
EIF5B (eukaryotic translation initiation factor 5B),2,0.0282,3.17,inactive
EIF5B (eukaryotic translation initiation factor 5B),3,7,52.2,active

Copied from above for reference:
target,siRNA no.,G2 robust z-score,"G2 cells, % of GMNN control",Outcome
IGFL2 (IGF like family member 2),2,-0.527,-0.738,inactive
IGFL2 (IGF like family member 2),3,-0.352,0.491,inactive
